# The other results are listed elsewhere or left out.
# B1: Epa2 (Candida glabrata) (protein)
# chain: MGSSHHHHHHSSGLVPRGSHMASSKDPTSFPMGCSPQVLKTQPGLAVKLYSYGHPVPGCAYNTYQYPDFPRSGYKKERKLADITGVNGRIDIDLKPNDPCRVLSGNLPSNYNYQNTLTYTNFTMILYGYFQPKVTGYHTFNLEADDLLFMNLGAGNAFDCCRAESTLDNFGNYQSYSIWGTDKATADLTVFLVSGIYYPIRLFYVNRDNNAVLDFSFSTEFNKEIIHDFTSYFFSASDEEQCPGNI
# What was measured:
# Test in all cases: glycan array binding signal (z-score within array); higher = stronger binding
# Conditions in all cases: glycan notation: IUPAC condensed, linker removed
# [1] = target: Gal(b1-4)GlcNAc(b1-6)Gal(b1-4)GlcNAc
# In short: (§1)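 Glycan array data came from 3228 arrays in the Consortium for Functional Glycomics database, and only arrays with an available protein sequence were kept. Glycan names were put into IUPAC-condensed notation, and columns mapping to the same glycan were averaged. The binding signal is a within-array Z-score, averaged across arrays of one protein sequence run at different concentrations or buffers and across linkers. A negative Z-score can be read as non-binding.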
# [2] = target: Gal(b1-4)GlcNAc(b1-6)GalNAc
# In short: as §1
# [3] = target: Gal(b1-4)GlcNAc(b1-6)[Gal(b1-3)]GalNAc
# In short: as §1
# [4] = target: Gal(b1-4)GlcNAc(b1-6)[Gal(b1-4)GlcNAc(b1-3)]GalNAc
# In short: as §1
# Gal(b1-4)GlcNAc6P = target: Gal(b1-4)GlcNAc6P
# In short: as §1
# Gal(b1-6)Gal = target: Gal(b1-6)Gal
# In short: as §1
# Gal3S(b1-3)GalNAc = target: Gal3S(b1-3)GalNAc
# In short: as §1
# Gal3S(b1-3)GlcNAc = target: Gal3S(b1-3)GlcNAc
# In short: as §1
# [5] = target: Gal3S(b1-3)[Fuc(a1-4)]GlcNAc
# In short: as §1
# Gal3S(b1-4)Glc = target: Gal3S(b1-4)Glc
# In short: as §1
# Gal3S(b1-4)Glc6S = target: Gal3S(b1-4)Glc6S
# In short: as §1
# Gal3S(b1-4)GlcNAc = target: Gal3S(b1-4)GlcNAc
# In short: as §1
# [6] = target: Gal3S(b1-4)[Fuc(a1-3)]Glc6S
# In short: as §1
# [7] = target: Gal3S(b1-4)[Fuc(a1-3)]GlcNAc
# In short: as §1
# [8] = target: Gal3S(b1-4)[Fuc(a1-3)]GlcNAc6S
# In short: as §1
# Gal3S4S(b1-4)GlcNAc = target: Gal3S4S(b1-4)GlcNAc
# In short: as §1
# Gal3S6S(b1-4)GlcNAc = target: Gal3S6S(b1-4)GlcNAc
# In short: as §1
# Gal3S6S(b1-4)GlcNAc6S = target: Gal3S6S(b1-4)GlcNAc6S
# In short: as §1
# Gal4S(b1-4)GlcNAc = target: Gal4S(b1-4)GlcNAc
# In short: as §1
# Gal4S6S(b1-4)GlcNAc = target: Gal4S6S(b1-4)GlcNAc
# In short: as §1
# Gal6P(b1-4)GlcNAc = target: Gal6P(b1-4)GlcNAc
# In short: as §1
# Gal6S(b1-3)GlcNAc = target: Gal6S(b1-3)GlcNAc
# In short: as §1
# Gal6S(b1-3)GlcNAc6S = target: Gal6S(b1-3)GlcNAc6S
# In short: as §1
# Gal6S(b1-4)Glc = target: Gal6S(b1-4)Glc
# In short: as §1
# Gal6S(b1-4)Glc6S = target: Gal6S(b1-4)Glc6S
# In short: as §1
# Gal6S(b1-4)GlcNAc = target: Gal6S(b1-4)GlcNAc
# In short: as §1
# Gal6S(b1-4)GlcNAc6S = target: Gal6S(b1-4)GlcNAc6S
# In short: as §1
# GalNAc(a1-3)Gal = target: GalNAc(a1-3)Gal
# In short: as §1
# GalNAc(a1-3)GalNAc = target: GalNAc(a1-3)GalNAc
# In short: as §1
# [9] = target: GalNAc(a1-3)GalNAc(b1-3)Gal(a1-4)Gal(b1-4)Glc
# In short: as §1
# [10] = target: GalNAc(a1-3)GalNAc(b1-3)Gal(a1-4)Gal(b1-4)GlcNAc
# In short: as §1
# GalNAc(b1-3)Gal = target: GalNAc(b1-3)Gal
# In short: as §1
# [11] = target: GalNAc(b1-3)Gal(a1-4)Gal(b1-4)GlcNAc
# In short: as §1
# [12] = target: GalNAc(b1-3)Gal(a1-4)Gal(b1-4)GlcNAc(b1-3)Gal(b1-4)Glc
# In short: as §1
# [13] = target: GalNAc(b1-3)Gal(a1-6)Gal(b1-4)Glc
# In short: as §1
# GalNAc(b1-3)GalNAc = target: GalNAc(b1-3)GalNAc
# In short: as §1
# GalNAc(b1-3)GlcNAc = target: GalNAc(b1-3)GlcNAc
# In short: as §1
# GalNAc(b1-4)Gal(b1-4)Glc = target: GalNAc(b1-4)Gal(b1-4)Glc
# In short: as §1
binder,measurement,setting,value
B1,glycan array binding signal (z-score),[1],0.05
same,glycan array binding signal (z-score),[2],0.29
same,glycan array binding signal (z-score),[3],0.842
same,glycan array binding signal (z-score),[4],-0.015
same,glycan array binding signal (z-score),Gal(b1-4)GlcNAc6P,1.42
same,glycan array binding signal (z-score),Gal(b1-6)Gal,-0.157
same,glycan array binding signal (z-score),Gal3S(b1-3)GalNAc,-0.202
same,glycan array binding signal (z-score),Gal3S(b1-3)GlcNAc,-0.16
same,glycan array binding signal (z-score),[5],0.641
same,glycan array binding signal (z-score),Gal3S(b1-4)Glc,-0.697
same,glycan array binding signal (z-score),Gal3S(b1-4)Glc6S,-0.006
same,glycan array binding signal (z-score),Gal3S(b1-4)GlcNAc,0.419
same,glycan array binding signal (z-score),[6],0.295
same,glycan array binding signal (z-score),[7],-0.151
same,glycan array binding signal (z-score),[8],1.59
same,glycan array binding signal (z-score),Gal3S4S(b1-4)GlcNAc,-0.29
same,glycan array binding signal (z-score),Gal3S6S(b1-4)GlcNAc,0.268
same,glycan array binding signal (z-score),Gal3S6S(b1-4)GlcNAc6S,2.14
same,glycan array binding signal (z-score),Gal4S(b1-4)GlcNAc,-0.316
same,glycan array binding signal (z-score),Gal4S6S(b1-4)GlcNAc,0.784
same,glycan array binding signal (z-score),Gal6P(b1-4)GlcNAc,-0.469
same,glycan array binding signal (z-score),Gal6S(b1-3)GlcNAc,-0.535
same,glycan array binding signal (z-score),Gal6S(b1-3)GlcNAc6S,0.048
same,glycan array binding signal (z-score),Gal6S(b1-4)Glc,-0.278
same,glycan array binding signal (z-score),Gal6S(b1-4)Glc6S,1.75
same,glycan array binding signal (z-score),Gal6S(b1-4)GlcNAc,-0.59
same,glycan array binding signal (z-score),Gal6S(b1-4)GlcNAc6S,2.81
same,glycan array binding signal (z-score),GalNAc(a1-3)Gal,-0.314
same,glycan array binding signal (z-score),GalNAc(a1-3)GalNAc,-0.524
same,glycan array binding signal (z-score),[9],-0.947
same,glycan array binding signal (z-score),[10],0.18
same,glycan array binding signal (z-score),GalNAc(b1-3)Gal,-0.1
same,glycan array binding signal (z-score),[11],0.236
same,glycan array binding signal (z-score),[12],1.03
same,glycan array binding signal (z-score),[13],0.4
same,glycan array binding signal (z-score),GalNAc(b1-3)GalNAc,-0.673
same,glycan array binding signal (z-score),GalNAc(b1-3)GlcNAc,-0.359
same,glycan array binding signal (z-score),GalNAc(b1-4)Gal(b1-4)Glc,0.342

# Part of the list above, reformatted:
binder	measurement	setting	value
B1	glycan array binding signal (z-score)	[3]	0.842
same	glycan array binding signal (z-score)	[4]	-0.015
same	glycan array binding signal (z-score)	Gal(b1-4)GlcNAc6P	1.42

# — the supplement of paper PMC8728848
